Taken from: PubChem BioAssay AID1259297 (Sanger Institute, 2017)
Here is one part, drawn at random, of 794 reagents tested. 13 of all reagents (1.6%) were called active. 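Calls reflect knock-down without drug only; drug synergy is judged separately, with scores above 0.15 counted as synergy.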 Unmarked entries are inactive. No viability above 1 is reported: the scale is capped. The record does not give: the amount of reagent, the time to read-out.

- Aim: 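Kinase knock-downs that lower colorectal cancer cell viability or act with drugs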 (primary screen)
- Cells: human RCM1 colorectal cancer cell line
- Knock-down reagent: siRNA pool against human genes
- Challenge: separate arms: DMSO vehicle, or one anchor drug at a mild dose: BYL719 1 µM, cetuximab 5 µg/ml, trametinib 10 nM
- Measurement: 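Viability per well relative to a non-targeting pool, mean of replicates; robust z-score for knock-down alone; synergy score with BYL719, cetuximab or trametinib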
- Scale: viability z-score, knock-down alone: higher = more viable cells than non-targeting controls; viability, knock-down alone (DMSO): higher = more viable cells; synergy score with trametinib: higher = stronger combined killing with trametinib; synergy score with BYL719: higher = stronger combined killing with BYL719; synergy score with cetuximab: higher = stronger combined killing with cetuximab
- Rule for the call: 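Called essential if knock-down without drug gives a viability robust z-score under -3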
- Meaning of the calls: active = essential when knocked down alone; inactive = no clear loss of viability alone

gene knocked down | viability z-score, knock-down alone | viability, knock-down alone (DMSO) (fraction of control) | synergy score with trametinib | synergy score with BYL719 | synergy score with cetuximab
SRPK1 | 0.0788 | 0.924 | 0.126 | 0.0268 | 0.0595
EPHA1 | 0.612 | 0.973 | 0.126 | 0.0973 | -0.142
PRKAG2 | 0.9 | 1 | 0.0443 | -0.0306 | -0.0666
ETNK2 | -0.537 | 0.867 | -0.0652 | 0.0675 | -0.0525
TAOK2 | 0.9 | 1 | 0.108 | -0.0516 | -0.118
BMP2K | 0.9 | 1 | -0.0839 | -0.0728 | -0.118
MAPK14 | 0.791 | 0.99 | 0.00412 | -0.0822 | -0.127
PIM2 | 0.0832 | 0.924 | 0.0333 | -0.0444 | 0.00147
NEK7 | 0.9 | 1 | -0.0951 | -0.0414 | -0.118
PSTK | -0.501 | 0.87 | -0.0482 | -0.122 | -0.0103
ITPK1 | 0.9 | 1 | 0.0732 | 0.0251 | -0.0439
MAP2K7 | -0.326 | 0.886 | 0.0501 | -0.178 | -0.198
GUCY2EP | -0.33 | 0.886 | -0.0169 | 0.027 | -0.176
RAD21 | 0.9 | 1 | -0.176 | -0.0522 | -0.101
MST1R | 0.9 | 1 | -0.0376 | -0.0728 | -0.118
TWF2 | 0.9 | 1 | -0.0538 | 0.0472 | -0.036
PDK2 | 0.9 | 1 | 0.00758 | -0.00796 | -0.0817
FN3K | -0.445 | 0.875 | 0.132 | 0.0511 | -0.102
PRKAA1 | 0.9 | 1 | 0.0105 | -0.0471 | 0.00694
MAPK8 | 0.713 | 0.983 | 0.0815 | 0.0894 | -0.105
MECOM | 0.879 | 0.998 | -0.0146 | 0.0132 | -0.12

2 successive records from above:
gene knocked down | viability z-score, knock-down alone | viability, knock-down alone (DMSO) (fraction of control) | synergy score with trametinib | synergy score with BYL719 | synergy score with cetuximab
EPHA1 | 0.612 | 0.973 | 0.126 | 0.0973 | -0.142
PRKAG2 | 0.9 | 1 | 0.0443 | -0.0306 | -0.0666

Continued.
gene knocked down | viability z-score, knock-down alone | viability, knock-down alone (DMSO) (fraction of control) | synergy score with trametinib | synergy score with BYL719 | synergy score with cetuximab
STK17A | -2.15 | 0.716 | -0.0236 | -0.0529 | -0.0234
TSSK1B | 0.411 | 0.955 | -0.00647 | -0.0234 | -0.0459
STK25 | 0.9 | 1 | 0.0849 | 0.0375 | -0.0682
SMC1A | -1.82 | 0.747 | 0.039 | 0.179 | 0.179
SIK1 | -0.124 | 0.905 | 0.191 | -0.00846 | -0.0518
TTBK1 | 0.0993 | 0.926 | -0.0218 | -0.0324 | -0.0657
BUB1B | 0.138 | 0.929 | 0.047 | 0.0326 | 0.0444
ABL1 | 0.9 | 1 | -0.0757 | -0.0682 | -0.0662
DMPK | 0.613 | 0.973 | 0.0825 | -0.0675 | -0.142
HCK | 0.387 | 0.952 | -0.00771 | 0.00429 | -0.0394
MARK2 | 0.9 | 1 | 0.114 | 0.0188 | 0.00285
STK32B | 0.00519 | 0.917 | -0.0156 | 0.0662 | -0.0164
CDKN2B | 0.9 | 1 | 0.00196 | 0.0273 | -0.118
ACSL6 | 0.9 | 1 | -0.078 | -0.0728 | -0.118
CSNK1A1L | 0.9 | 1 | -0.0454 | -0.0157 | -0.0528
CAMKV | 0.492 | 0.962 | -0.0168 | 0.0729 | -0.107
PDK1 | -0.346 | 0.884 | 0.0765 | -0.0709 | -0.22
TAF1L | 0.716 | 0.983 | 0.0326 | -0.0264 | -0.127
PDK4 | 0.786 | 0.989 | 0.0701 | 0.00638 | -0.066
CSNK1G2 | 0.576 | 0.97 | 0.0633 | -0.101 | -0.145
ARAF | 0.9 | 1 | -0.0973 | -0.0728 | -0.105
MAPKAPK2 | 0.366 | 0.95 | -0.00129 | -0.0551 | -0.024
AURKA | -2.66 | 0.669 | -0.0382 | -0.0513 | 0.0821
ALK | -2.28 | 0.705 | -0.0133 | 0.0327 | -0.262
PRKCQ | 0.738 | 0.985 | 0.063 | -0.0868 | -0.111
